In article PMC8194349:
Results are given in words; binding and its absence hold for the method and conditions named. Binding seen in cells or lysates may run through a third protein. Some results given as binding are weak or reduced against the parent protein; the word gives no strength.

Target: NF-kb-p65 (human (endogenous in T24/RT4 bladder cancer cells)), Q04206
Assay: co-IP; cell lysate in IP buffer with 2 μg anti-NF-kb-p65 overnight at 4°C, Protein A+G Agarose 2 h at 4°C, blot for NF-kb-p65, IKBα and IKBβ; cells with overexpression or knockdown of LINC00467
Conditions: remark: other sources report otherwise

binding: binds
B1: IKBα, P25963 1-317 (protein)
chain: MFQAAERPQEWAMEGPRDGLKKERLLDDRHDSGLDSMKDEEYEQMVKELQEIRLEPQEVPRGSEPWKQQLTEDGDSFLHLAIIHEEKALTMEVIRQVKGDLAFLNFQNNLQQTPLHLAVITNQPEIAEALLGAGCDPELRDFRGNTPLHLACEQGCLASVGVLTQSCTTPHLHSILKATNYNGHTCLHLASIHGYLGIVELLVSLGADVNAQEPCNGRTALHLAVDLQNPDLVSLLLKCGADVNRVTYQGYSPYQLTWGRPSTRIQQQLGQLTLENLQMLPESEDEESYDTESEFTEFTEDELPYDDCVFGGQRLTL
